{"source": "PubChem BioAssay AID652259, Drosophila RNAi Screening Center, 2013", "test": "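Knock-downs that push a Wingless-driven reporter up or down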 (primary screen)", "cells": "Drosophila clone 8 imaginal disc epithelial cells", "reagent": "long dsRNA against Drosophila genes", "conditions": "pathway stimulated by co-transfected Wingless expression plasmid", "measured": "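Dual luciferase reads per well after Wingless plasmid stimulation: reporter firefly light and Renilla control light; activity is firefly divided by Renilla, a ratio not deposited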", "direction": "firefly reporter light: higher = more Wg reporter light, before normalisation; Renilla control light: higher = more transfected or surviving cells", "hit rule": "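Strong candidates differ from their plate mean by at least two out of four per-plate statistical tests; weak candidates meet just one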", "calls": "active = candidate regulator (raises or lowers reporter); inactive = not a candidate", "note": "In all, the deposit lists about 22,000 reagents; below is an unselected part of those that have a named target and a result. Of all reagents, 233 (1.1%) were called active. 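Light values are raw, unnormalised plate reads; the ratio scores behind the reporter calls were not deposited.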 Entries without a mark were called inactive. Names joined by + are all predicted targets of the reagent. Not given: the amount of reagent, the time to read-out, the dose of the treatment."}
{"target gene": "Fancl", "DRSC id": "DRSC14550", "firefly reporter light, replicate 1": 16032, "Renilla control light, replicate 1": 2952}
{"target gene": "Mur29B", "DRSC id": "DRSC01018", "firefly reporter light, replicate 1": 20891, "Renilla control light, replicate 1": 10903}
{"target gene": "Mur29B", "DRSC id": "DRSC02376", "firefly reporter light, replicate 1": 3771, "firefly reporter light, replicate 2": 8806, "Renilla control light, replicate 1": 1465, "Renilla control light, replicate 2": 4503}
{"target gene": "chk", "DRSC id": "DRSC04994", "firefly reporter light, replicate 1": 8146, "Renilla control light, replicate 1": 2921}
{"target gene": "fax", "DRSC id": "DRSC11345", "firefly reporter light, replicate 1": 4689, "Renilla control light, replicate 1": 1821}
{"target gene": "CG17601", "DRSC id": "DRSC20639", "firefly reporter light, replicate 1": 14178, "Renilla control light, replicate 1": 8720}
{"target gene": "Spn42De", "DRSC id": "DRSC05011", "firefly reporter light, replicate 1": 1529, "firefly reporter light, replicate 2": 6419, "Renilla control light, replicate 1": 722, "Renilla control light, replicate 2": 2836}
{"target gene": "Menl-2 + Menl-1", "DRSC id": "DRSC07469", "firefly reporter light, replicate 1": 8416, "Renilla control light, replicate 1": 3705}
{"target gene": "Menl-2 + Menl-1", "DRSC id": "DRSC07470", "firefly reporter light, replicate 1": 6362, "Renilla control light, replicate 1": 2459}
{"target gene": "CG13197", "DRSC id": "DRSC06322", "firefly reporter light, replicate 1": 12310, "Renilla control light, replicate 1": 3733}
{"target gene": "CG31937", "DRSC id": "DRSC00514", "firefly reporter light, replicate 1": 14343, "Renilla control light, replicate 1": 5835}
{"target gene": "CG10352", "DRSC id": "DRSC19353", "firefly reporter light, replicate 1": 11347, "Renilla control light, replicate 1": 7210}
{"target gene": "CG13877 + pyx", "DRSC id": "DRSC08347", "firefly reporter light, replicate 1": 8839, "Renilla control light, replicate 1": 3108}
{"target gene": "Ir7b", "DRSC id": "DRSC18009", "firefly reporter light, replicate 1": 13099, "Renilla control light, replicate 1": 8547}
{"target gene": "Hsc70-2", "DRSC id": "DRSC16710", "firefly reporter light, replicate 1": 12640, "Renilla control light, replicate 1": 2610}
{"target gene": "Rae1", "DRSC id": "DRSC04577", "firefly reporter light, replicate 1": 10400, "Renilla control light, replicate 1": 2132}
{"target gene": "CG4849", "DRSC id": "DRSC15662", "firefly reporter light, replicate 1": 1915, "firefly reporter light, replicate 2": 6464, "Renilla control light, replicate 1": 451, "Renilla control light, replicate 2": 727}
{"target gene": "kune", "DRSC id": "DRSC04860", "firefly reporter light, replicate 1": 2761, "firefly reporter light, replicate 2": 5440, "Renilla control light, replicate 1": 834, "Renilla control light, replicate 2": 2396}
{"target gene": "CG32855", "DRSC id": "DRSC13131", "firefly reporter light, replicate 1": 1988, "Renilla control light, replicate 1": 928}
{"target gene": "CG18081", "DRSC id": "DRSC10294", "firefly reporter light, replicate 1": 5664, "Renilla control light, replicate 1": 2874}
{"target gene": "CG42512 + CG32573", "DRSC id": "DRSC19532", "firefly reporter light, replicate 1": 15680, "Renilla control light, replicate 1": 7664}
{"target gene": "CG42512 + CG32573", "DRSC id": "DRSC19906", "firefly reporter light, replicate 1": 4273, "firefly reporter light, replicate 2": 9020, "Renilla control light, replicate 1": 1980, "Renilla control light, replicate 2": 2756}
{"target gene": "CG42512 + CG32573", "DRSC id": "DRSC22782", "firefly reporter light, replicate 1": 8.76e5, "firefly reporter light, replicate 2": 6.57e5, "Renilla control light, replicate 1": 3.69e5, "Renilla control light, replicate 2": 140}
{"target gene": "CG32061", "DRSC id": "DRSC22605", "firefly reporter light, replicate 1": 5.61e5, "firefly reporter light, replicate 2": 5.80e5, "Renilla control light, replicate 1": 2.37e5, "Renilla control light, replicate 2": 79667}
{"target gene": "CG30109", "DRSC id": "DRSC05675", "firefly reporter light, replicate 1": 18016, "Renilla control light, replicate 1": 12077}

A stretch of the results above, for reference:
{"target gene": "fax", "DRSC id": "DRSC11345", "firefly reporter light, replicate 1": 4689, "Renilla control light, replicate 1": 1821}
{"target gene": "CG17601", "DRSC id": "DRSC20639", "firefly reporter light, replicate 1": 14178, "Renilla control light, replicate 1": 8720}
